One experiment addresses His-YANK2-Flag (human) (UniProt Q9NY57). Kind of experiment: pull-down; HEK293T cells co-transfected for 48 h with pCMV-His-YANK2-Flag and the partner plasmid; pulldown with Ni-NTA beads; blot with anti-Myc or anti-HA.
Experiment [1] deals with Endogenous YANK2 (human (endogenous in U87MG and Hs683)) (UniProt Q9NY57). As to the kind of experiment: co-IP; endogenous YANK2 immunoprecipitated from glioma cells (U87MG or Hs683); blot with anti-Fyn or anti-p70S6K.

Sequences of proteins named here, by UniProt entry; tags and fusion partners are left off.
UniProt Q9NY57: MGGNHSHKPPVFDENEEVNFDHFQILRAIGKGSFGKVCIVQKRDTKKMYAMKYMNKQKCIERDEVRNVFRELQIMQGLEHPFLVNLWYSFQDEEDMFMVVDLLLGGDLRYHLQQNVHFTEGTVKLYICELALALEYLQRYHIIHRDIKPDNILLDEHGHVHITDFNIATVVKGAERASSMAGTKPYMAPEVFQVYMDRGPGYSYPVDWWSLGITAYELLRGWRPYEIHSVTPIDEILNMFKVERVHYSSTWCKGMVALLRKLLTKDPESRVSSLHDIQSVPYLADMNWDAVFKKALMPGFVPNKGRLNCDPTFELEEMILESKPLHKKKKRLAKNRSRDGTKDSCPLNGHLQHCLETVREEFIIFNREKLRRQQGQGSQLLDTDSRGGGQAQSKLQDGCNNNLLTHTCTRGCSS
UniProt P06241: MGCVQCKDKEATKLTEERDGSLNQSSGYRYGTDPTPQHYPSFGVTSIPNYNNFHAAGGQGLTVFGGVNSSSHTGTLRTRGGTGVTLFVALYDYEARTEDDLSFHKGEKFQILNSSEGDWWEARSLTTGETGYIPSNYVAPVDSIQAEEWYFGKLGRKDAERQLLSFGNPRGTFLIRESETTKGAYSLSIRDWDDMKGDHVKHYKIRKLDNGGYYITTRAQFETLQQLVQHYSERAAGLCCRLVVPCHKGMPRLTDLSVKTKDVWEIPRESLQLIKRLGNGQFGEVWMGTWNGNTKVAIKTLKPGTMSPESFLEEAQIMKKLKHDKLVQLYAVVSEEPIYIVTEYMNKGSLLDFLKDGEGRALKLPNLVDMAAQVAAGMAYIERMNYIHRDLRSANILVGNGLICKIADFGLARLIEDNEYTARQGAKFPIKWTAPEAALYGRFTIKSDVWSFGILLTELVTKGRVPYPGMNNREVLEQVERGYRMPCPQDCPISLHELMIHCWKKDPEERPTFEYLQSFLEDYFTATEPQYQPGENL

These are yes or no findings as the source states them, for the method shown. In cells and extracts the contact can be indirect. Some binding calls cover weakened binding; strength is not graded here.

As to “Myc-Fyn-Flag (from UniProt P06241 1-537) (enzyme)”, the binding entry with His-YANK2-Flag (human) is recorded as “binds”.

Take “Endogenous Fyn (from UniProt P06241 1-537) (enzyme)”: the binding result in experiment [1] is reported as “binds”.

For the origin of these results see PMC11076283.
